Data published in the supplement of paper PMC12823440, “Inhibitors supercharge kinase turnover through native proteolytic circuits” (Nature, 2025).
Structures can show the parent of a compound that is named as a salt. The list shows a part of the results. The calls rarely recur for the same compound in another form.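 In K562 cells expressing nanoluciferase-fused kinases, luminescence was recorded at 4 h intervals between 2 and 18 h, normalized as percent of control with DMSO at 100% and a positive control at 0%. A significant (2 sigma) signal drop marks a time point as decreased. The authors' rule for a hit is not shown and takes in more than the number of time points.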

Sequences of proteins named here, by UniProt entry; tags and fusion partners are left off.
UniProt Q16620, whole entry, looked up: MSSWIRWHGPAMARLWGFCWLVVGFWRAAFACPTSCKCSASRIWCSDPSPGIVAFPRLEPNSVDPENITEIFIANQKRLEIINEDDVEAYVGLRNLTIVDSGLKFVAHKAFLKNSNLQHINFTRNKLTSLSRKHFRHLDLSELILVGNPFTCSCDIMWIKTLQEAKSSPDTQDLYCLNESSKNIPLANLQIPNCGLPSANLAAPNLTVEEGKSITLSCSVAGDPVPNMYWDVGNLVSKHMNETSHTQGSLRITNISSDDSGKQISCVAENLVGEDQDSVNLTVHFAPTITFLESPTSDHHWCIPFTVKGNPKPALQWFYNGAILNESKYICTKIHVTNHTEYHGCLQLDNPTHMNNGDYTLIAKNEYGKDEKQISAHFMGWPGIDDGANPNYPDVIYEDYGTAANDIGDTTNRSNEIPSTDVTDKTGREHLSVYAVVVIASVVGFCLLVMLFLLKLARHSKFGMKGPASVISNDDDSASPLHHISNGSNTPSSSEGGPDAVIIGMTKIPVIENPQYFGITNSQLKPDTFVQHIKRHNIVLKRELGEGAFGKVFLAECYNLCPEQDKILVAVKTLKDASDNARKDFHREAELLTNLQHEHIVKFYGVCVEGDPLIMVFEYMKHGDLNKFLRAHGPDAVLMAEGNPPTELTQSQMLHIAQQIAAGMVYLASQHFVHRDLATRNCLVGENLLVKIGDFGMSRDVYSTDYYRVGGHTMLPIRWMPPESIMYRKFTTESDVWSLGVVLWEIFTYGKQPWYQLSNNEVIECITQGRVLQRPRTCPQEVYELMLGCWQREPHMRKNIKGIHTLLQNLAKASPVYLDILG

Molecular target: NTRK2 (UniProt Q16620)
Assay: kinase-Nluc reporter destabilization hit call (1 = scored as downregulated) (binary); higher = compound decreases kinase abundance
Conditions: K562; 2-18 h

kinase-Nluc reporter destabilization hit call, inactive:
CC(C1CC1)n1cnc2c(NCc3cccc(C(F)(F)F)c3)nc(NCCN(C)C)nc21 (stereo not drawn) (10 µM) 0
COc1cc2nc(NC3CC3)nc(NC3CCN(C(C)C)CC3)c2cc1OC (10 µM) 0
Cc1nn(CC(F)(F)F)cc1Nc1ncc(Br)c(NCc2ccc(S(N)(=O)=O)cc2)n1 (10 µM) 0
N#C/C(=C/c1ccc(O)c(O)c1)C(=O)N1CCc2ccccc21 [Tyrphostin AG 528] (10 µM) 0
Cc1nc2c(NCc3cccc(S(C)(=O)=O)c3)nccn2c1-c1ccc(O)c(F)c1 (10 µM) 0
CN(C)c1cc[n+](Cc2ccc(OCCOc3ccc(C[n+]4ccc(N(C)C)cc4)cc3)cc2)cc1 (10 µM) 0
O=C1CCC(N2C(=O)c3cccc(OCCCCCOc4ccc(CC(=O)Nc5cc(C6CCC6)[nH]n5)cc4)c3C2=O)C(=O)N1 (stereo not drawn) [PROTAC CDK9 Degrader-1] (10 µM) 0
CCOc1cc(=O)[nH]cc1-c1ccc(CC(=O)Nc2cc(C(C)(C)C(F)(F)F)on2)c(F)c1 (10 µM) 0
O=C(O)/C=C(\CCc1ccc(Cl)cc1)c1ccccc1 (10 µM) 0
CCc1c(C(=O)NNC(=O)[C@H](O)c2cc(F)cc(F)c2)ccc(O)c1C (10 µM) 0
O=c1cc(N2CCOCC2)oc2c(-c3cccc4c3sc3ccccc34)cccc12 (10 µM) 0
CN1CCN(c2ccc(-n3cc(-c4ccncc4OCC4CCNCC4)cn3)cc2)CC1 [MELK-8a (hydrochloride)] (10 µM) 0
Cc1ccc(C2CC(=O)NC(SCC(=O)Nc3nccs3)=C2C#N)cc1 (stereo not drawn) [Necrostatin-34] (10 µM) 0
CNc1cc2c(Nc3cccc(Br)c3)ncnc2cn1 (10 µM) 0
Cn1cc(-c2nc(N[C@@H]3CCCC[C@@H]3N)c(F)c3c2C(=O)NC3)cn1 [TAK-659 (hydrochloride)] (2 µM) 0
CC(=O)Nc1nc(C)c(-c2cc(C)c3c(c2)CN([C@@H](C)C2CC2)C3=O)s1 (10 µM) 0
CN(C)c1ccc(/C=C2\C(=O)Nc3ccccc32)c2ccccc12 (10 µM) 0
COc1ccc(-c2cc(=O)c3c(O)cc(O)cc3o2)cc1-c1c(O)cc(O)c2c(=O)cc(-c3ccc(O)cc3)oc12 [Bilobetin] (2.5 µM) 0
O=C(NCc1ccn[nH]1)c1cc([C@@H]2CCNC[C@H]2COc2ccc3c(c2)OCO3)ccc1F [GRK2-IN-1 (hydrochloride)] (10 µM) 0
Nc1ccc(C(=O)Nc2cccc(-c3nc(N4CCOCC4)c4oc5ncccc5c4n3)c2)cn1 (10 µM) 0
CCOC(=O)c1c(C)[nH]c(C=C2C(=O)Nc3ccccc32)c1C (10 µM) 0
CCCS(=O)(=O)N[C@H]1C[C@@H](N(C)c2ncnc3[nH]ccc23)C1 [Abrocitinib] (10 µM) 0
O=[N+]([O-])c1ccc(-c2nc(-c3ccc(F)cc3)c(-c3ccncc3)[nH]2)cc1 (10 µM) 0
O=C(O)c1c[nH]c2cc(Cl)c(-c3ccc(C4(O)CCC4)cc3)cc12 (10 µM) 0
CN1CCC(Nc2nc(Nc3ccc(Oc4ccccc4)cc3)c3c(=O)[nH]cc(Br)c3n2)CC1 (2.5 µM) 0
CO[C@]1(C(=O)N[C@@H](C)c2ccc(-n3cc(F)cn3)nc2)CC[C@H](c2nc(C)cc(Nc3cc(C)[nH]n3)n2)CC1 [Pralsetinib] (10 µM) 0
COc1c(Nc2ncc(Cl)c(N[C@H]3[C@@H](C(N)=O)[C@@H]4C=C[C@H]3C4)n2)ccc2c1CC[C@@H](N1CCOCC1)CC2 (10 µM) 0
CN1CCN(Cc2ccc(-c3cn(C4CCC(O)CC4)c4nc(NCCC5CC5)ncc34)cc2)CC1 (stereo not drawn) (2.5 µM) 0
C[C@@H]1COC(Nc2ccc3ncnc(Nc4ccc(OCc5nccs5)c(Cl)c4)c3c2)=N1 [Varlitinib] (10 µM) 0
CC(C)n1cnc2c(Nc3cccc(Cl)c3)nc(N[C@H]3CCCC[C@@H]3N)nc21 (2.5 µM) 0
Cc1n[nH]c2ncc(C(=O)N3CCC[C@H]3c3ccc(Cl)cc3)cc12 (10 µM) 0
COc1ccc2cc1Oc1ccc(cc1)C[C@H]1c3cc(c(OC)cc3CCN1C)Oc1c(O)c(OC)cc3c1[C@H](C2)N(C)CC3 [Fangchinoline] (2.5 µM) 0
CS[C@@]1(C(=O)Nc2ccc3[nH]nc(-c4ccc(OC(C)C)nc4)c3c2)CCN(CC(=O)N2CC=C(c3ccc(-c4ncn(C)n4)cc3)CC2)C1 (2.5 µM) 0
CC/C(=C(\c1ccccc1)c1ccc(OCCNC)cc1)c1ccccc1 [N-Desmethyltamoxifen (hydrochloride)] (2.5 µM) 0
CNC(=O)CN1CCC(Oc2cc3c(Nc4cccc(Cl)c4F)ncnc3cc2OC)CC1 [Sapitinib] (10 µM) 0
O=CN1CCN(c2ccc(C=C3C(=O)Nc4ccccc43)cc2)CC1 (10 µM) 0
CCCCC(=O)OCC(=O)[C@]1(O)Cc2c(O)c3c(c(O)c2[C@@H](O[C@H]2C[C@H](NC(=O)C(F)(F)F)[C@H](O)[C@H](C)O2)C1)C(=O)c1c(OC)cccc1C3=O [Valrubicin] (10 µM) 0
Fc1ccc(Cl)cc1-c1nc(Nc2ccncc2)c2nccnc2n1 (10 µM) 0

For reference, part of the list above:
kinase-Nluc reporter destabilization hit call, inactive:
CN(C)c1cc[n+](Cc2ccc(OCCOc3ccc(C[n+]4ccc(N(C)C)cc4)cc3)cc2)cc1 (10 µM) 0
O=C1CCC(N2C(=O)c3cccc(OCCCCCOc4ccc(CC(=O)Nc5cc(C6CCC6)[nH]n5)cc4)c3C2=O)C(=O)N1 (stereo not drawn) [PROTAC CDK9 Degrader-1] (10 µM) 0
